Measurements as given in article PMC7404097.
No constants are given. Whether binding was seen depends on the method and setting. Binding seen in cells or lysates may run through a third protein. Some entries that bind do so weakly or less than the wild type.

Sequences of proteins named here, by UniProt entry; tags and fusion partners are left off.
UniProt P08100: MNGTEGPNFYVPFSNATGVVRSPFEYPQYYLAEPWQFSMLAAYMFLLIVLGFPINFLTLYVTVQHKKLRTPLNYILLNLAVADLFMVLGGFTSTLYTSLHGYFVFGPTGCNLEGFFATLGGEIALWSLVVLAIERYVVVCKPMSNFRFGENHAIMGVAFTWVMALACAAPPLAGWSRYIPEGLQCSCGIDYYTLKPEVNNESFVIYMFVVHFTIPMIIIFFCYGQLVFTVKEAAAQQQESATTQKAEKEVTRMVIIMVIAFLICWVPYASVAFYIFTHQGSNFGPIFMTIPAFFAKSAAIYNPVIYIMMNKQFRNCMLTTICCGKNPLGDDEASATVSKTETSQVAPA
UniProt P30874: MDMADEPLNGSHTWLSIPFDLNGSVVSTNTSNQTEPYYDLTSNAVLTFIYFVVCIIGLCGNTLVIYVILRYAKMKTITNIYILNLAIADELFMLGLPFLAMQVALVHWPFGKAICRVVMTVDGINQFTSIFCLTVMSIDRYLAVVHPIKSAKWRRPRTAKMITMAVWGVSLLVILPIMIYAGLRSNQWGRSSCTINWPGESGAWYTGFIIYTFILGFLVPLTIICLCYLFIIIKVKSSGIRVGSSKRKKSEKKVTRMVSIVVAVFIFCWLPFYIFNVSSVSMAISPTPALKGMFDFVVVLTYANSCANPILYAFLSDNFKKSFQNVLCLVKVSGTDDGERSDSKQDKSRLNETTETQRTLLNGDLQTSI
UniProt P30550: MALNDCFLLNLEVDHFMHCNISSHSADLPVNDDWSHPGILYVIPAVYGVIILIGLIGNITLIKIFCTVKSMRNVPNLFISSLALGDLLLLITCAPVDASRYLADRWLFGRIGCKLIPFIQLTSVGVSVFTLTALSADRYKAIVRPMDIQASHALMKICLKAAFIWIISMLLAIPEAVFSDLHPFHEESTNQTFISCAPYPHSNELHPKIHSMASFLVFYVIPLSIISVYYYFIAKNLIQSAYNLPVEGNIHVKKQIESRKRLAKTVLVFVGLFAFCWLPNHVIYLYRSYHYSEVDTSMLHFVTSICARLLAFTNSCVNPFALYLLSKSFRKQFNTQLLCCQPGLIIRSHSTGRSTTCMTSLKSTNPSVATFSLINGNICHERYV
UniProt P10523: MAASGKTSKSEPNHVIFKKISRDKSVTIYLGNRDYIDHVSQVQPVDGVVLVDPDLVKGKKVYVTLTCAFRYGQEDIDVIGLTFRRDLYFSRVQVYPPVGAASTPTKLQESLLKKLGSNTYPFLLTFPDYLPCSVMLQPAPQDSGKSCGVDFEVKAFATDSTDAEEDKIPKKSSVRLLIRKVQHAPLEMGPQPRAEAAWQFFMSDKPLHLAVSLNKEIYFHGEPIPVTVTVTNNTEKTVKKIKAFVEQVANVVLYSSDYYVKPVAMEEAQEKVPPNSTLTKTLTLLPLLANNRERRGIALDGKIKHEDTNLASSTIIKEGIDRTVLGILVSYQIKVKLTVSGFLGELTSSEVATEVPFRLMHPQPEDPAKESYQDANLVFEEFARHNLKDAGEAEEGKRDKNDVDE
UniProt P49407: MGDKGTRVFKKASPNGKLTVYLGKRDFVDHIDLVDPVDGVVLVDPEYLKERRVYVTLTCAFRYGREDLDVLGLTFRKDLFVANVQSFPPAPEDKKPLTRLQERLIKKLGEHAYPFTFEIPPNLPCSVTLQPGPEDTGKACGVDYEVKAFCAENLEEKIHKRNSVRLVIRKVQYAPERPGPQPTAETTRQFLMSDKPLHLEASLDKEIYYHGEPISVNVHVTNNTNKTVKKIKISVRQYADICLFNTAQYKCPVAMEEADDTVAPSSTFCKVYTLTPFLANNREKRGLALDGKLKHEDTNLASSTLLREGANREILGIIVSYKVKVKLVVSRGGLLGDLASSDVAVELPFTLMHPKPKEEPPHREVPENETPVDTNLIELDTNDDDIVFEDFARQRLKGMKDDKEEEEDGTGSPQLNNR

What was measured:
[1] = biological target: human rhodopsin with the large NanoLuc subunit 11S at its C-terminus (human) (UniProt P08100); experiment: split reporter; direct assay: GPCR-11S and 114-arrestin co-expressed in live HEK293 cells (transient transfection, MultiPrime plasmid or baculovirus); 10 min baseline, then 1 µM agonist (isoproterenol, DOTA-TOC, AMBA) or 485 nm light for rhodopsin; furimazine luminescence over time
[2] = biological target: B2AR-11S (β2-adrenergic receptor with the large NanoLuc subunit 11S at its C-terminus) (UniProt P07550); experiment: as above
[3] = biological target: SSTR2-11S (somatostatin receptor type 2 with the large NanoLuc subunit 11S at its C-terminus) (UniProt P30874); experiment: as above
[4] = biological target: GRPR-11S (gastrin-releasing peptide receptor with the large NanoLuc subunit 11S at its C-terminus) (UniProt P30550); experiment: as above
[5] = biological target: SSTR2-11S (somatostatin receptor type 2 with the large NanoLuc subunit 11S at its C-terminus) (UniProt P30874); experiment: split reporter; direct assay, baseline luminescence before agonist (inactive receptor); gene dose experiment, Job plot of baseline against the fraction of receptor plasmid; live HEK293 cells
[6] = biological target: GRPR-11S (gastrin-releasing peptide receptor with the large NanoLuc subunit 11S at its C-terminus) (UniProt P30550); experiment: as above

Measured: binding

114-S-arrestin (S-arrestin with the small NanoLuc subunit 114 at its N-terminus) (from UniProt P10523 1-405)
binds: [1] | [2] | [3] | [4]

114-β-arrestin-1 (β-arrestin-1 with the small NanoLuc subunit 114 at its N-terminus) (from UniProt P49407 1-418)
binds: [1] | [3] | [4]

114-β-arrestin-2 (β-arrestin-2 with the small NanoLuc subunit 114 at its N-terminus) (from UniProt P32121 1-409)
binds: [1] | [3] | [4]
binds weakly: [5] | [6]
